From US8092810B2, “Use of polypeptides having antimicrobial activity” (Novozymes A/S, priority 2006, dated 2012)
In brackets after ≈: the same amount, converted by molar mass.

Legend:
[1] = tested on: Klebsiella pneumoniae ATCC 10031; assay: MIC broth microdilution; format: cell-based; settings: ATCC10031; Klebsiella pneumoniae ATCC 10031, Gram −; MHB, 35° C., 24 hours
Protocol: (§1) Briefly, the MIC was determined by microbroth dilution assay in a 96 well plate. 4-5 colonies of each bacterium tested were added to 5 ml of MHB, placed in a 35° C. shaker until the OD 600 nm reached 0.08-0.10. The inoculum was diluted 1:100 and 50 microliters were added to each well which contained 50 microliters of serial two fold dilutions of Lento, vancomycin or ciprofloxacin. Each concentration of antibiotic or Lento was tested in duplicate. The plate was placed at 35° C. overnight. MICs were determined after 24 hours incubation and defined by the well containing the lowest amount of antibiotic with no visible growth.

[2] = tested on: Pseudomonas aeruginosa ATCC 27853; assay: MIC broth microdilution; format: cell-based; settings: ATCC27853; Pseudomonas aeruginosa ATCC 27853, Gram −; MHB, 35° C., 24 hours
Protocol: as §1

O=C(O)c1cn(C2CC2)c2cc(N3CCNCC3)c(F)cc2c1=O [Ciprofloxacin]
MIC [1]: 0.0625 µg/mL (≈ 0.189 µM) | MIC [2]: 0.125 to 0.25 µg/mL (≈ 0.377 to 0.754 µM)
